These are yes or no findings as the source states them, for the method shown. Binding seen in cells or lysates may run through a third protein. Binding can be weak; no strength is given.
Key:
[1] = biological target: integrin β1 (ITGβ1) (human (endogenous in HT1080)) (UniProt P05556); test: proximity ligation
[2] = biological target: integrin β1 (ITGβ1) (human (endogenous in HT1080)) (UniProt P05556); test: co-IP

By UniProt entry, the sequences of proteins in these tests, tags left out. Where a name states a change or a piece, a line headed by the entry shows the natural chain unless it says otherwise.
UniProt P05556: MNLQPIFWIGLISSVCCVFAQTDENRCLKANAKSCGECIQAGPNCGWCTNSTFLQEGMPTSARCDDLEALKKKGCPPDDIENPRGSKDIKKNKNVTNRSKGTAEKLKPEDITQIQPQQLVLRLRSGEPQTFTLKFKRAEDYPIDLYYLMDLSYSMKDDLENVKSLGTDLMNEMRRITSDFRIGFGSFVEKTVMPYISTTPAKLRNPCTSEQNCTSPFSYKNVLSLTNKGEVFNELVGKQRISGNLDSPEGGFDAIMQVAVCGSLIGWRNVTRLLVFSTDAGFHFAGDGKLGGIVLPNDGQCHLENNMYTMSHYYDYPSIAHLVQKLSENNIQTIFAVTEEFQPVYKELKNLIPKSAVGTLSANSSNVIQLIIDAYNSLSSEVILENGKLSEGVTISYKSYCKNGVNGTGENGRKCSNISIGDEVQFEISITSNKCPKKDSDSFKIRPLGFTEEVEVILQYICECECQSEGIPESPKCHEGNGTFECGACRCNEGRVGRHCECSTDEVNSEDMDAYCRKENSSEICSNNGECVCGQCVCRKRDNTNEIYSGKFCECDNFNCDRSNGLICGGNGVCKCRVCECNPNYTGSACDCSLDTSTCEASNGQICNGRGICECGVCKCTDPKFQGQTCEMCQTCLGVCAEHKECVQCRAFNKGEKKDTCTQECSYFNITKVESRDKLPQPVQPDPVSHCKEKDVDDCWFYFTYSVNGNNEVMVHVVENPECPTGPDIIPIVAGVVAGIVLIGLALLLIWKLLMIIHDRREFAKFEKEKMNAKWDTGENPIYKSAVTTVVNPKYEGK
UniProt P14780: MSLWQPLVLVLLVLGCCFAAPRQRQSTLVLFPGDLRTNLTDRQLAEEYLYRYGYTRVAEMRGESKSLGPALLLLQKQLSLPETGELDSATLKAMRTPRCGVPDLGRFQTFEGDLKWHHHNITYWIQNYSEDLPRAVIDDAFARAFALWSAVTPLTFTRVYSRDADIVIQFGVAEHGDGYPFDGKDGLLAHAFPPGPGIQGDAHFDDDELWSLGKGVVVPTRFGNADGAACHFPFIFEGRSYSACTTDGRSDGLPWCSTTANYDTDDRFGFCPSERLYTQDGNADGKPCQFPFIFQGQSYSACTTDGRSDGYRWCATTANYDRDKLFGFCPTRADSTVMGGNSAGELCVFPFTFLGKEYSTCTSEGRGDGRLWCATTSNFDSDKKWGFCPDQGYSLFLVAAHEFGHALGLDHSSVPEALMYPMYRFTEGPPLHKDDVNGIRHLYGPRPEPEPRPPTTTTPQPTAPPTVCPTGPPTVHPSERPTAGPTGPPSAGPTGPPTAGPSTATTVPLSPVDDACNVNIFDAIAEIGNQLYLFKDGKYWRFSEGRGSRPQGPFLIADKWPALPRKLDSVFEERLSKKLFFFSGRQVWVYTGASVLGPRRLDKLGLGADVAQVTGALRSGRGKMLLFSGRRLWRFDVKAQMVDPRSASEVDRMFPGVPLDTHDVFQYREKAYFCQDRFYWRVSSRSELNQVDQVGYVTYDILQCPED

| Substance | binding [1] | binding [2] |
| --- | --- | --- |
| Catalytically inactive MMP9 (E402A) fused to eGFP (Δcat) (from UniProt P14780) (enzyme) | binds | binds |
| MMP9 full-length fused to eGFP (M9FL) (from UniProt P14780) (enzyme) | binds | binds |

Source: publication doi:10.1101/2024.04.01.587542
